Article PMC5762923
Numbering of substitutions follows the chain as printed. Numbers in names are those of the source. These are yes or no findings as the source states them, for the method shown. Binding seen in cells or lysates may run through a third protein. Some binding calls cover weakened binding; strength is not graded here. Tags and fused reporters may be left off the sequences shown.

Protein sequences, listed by entry. Tags and fused reporters are not part of them.
UniProt Q13263: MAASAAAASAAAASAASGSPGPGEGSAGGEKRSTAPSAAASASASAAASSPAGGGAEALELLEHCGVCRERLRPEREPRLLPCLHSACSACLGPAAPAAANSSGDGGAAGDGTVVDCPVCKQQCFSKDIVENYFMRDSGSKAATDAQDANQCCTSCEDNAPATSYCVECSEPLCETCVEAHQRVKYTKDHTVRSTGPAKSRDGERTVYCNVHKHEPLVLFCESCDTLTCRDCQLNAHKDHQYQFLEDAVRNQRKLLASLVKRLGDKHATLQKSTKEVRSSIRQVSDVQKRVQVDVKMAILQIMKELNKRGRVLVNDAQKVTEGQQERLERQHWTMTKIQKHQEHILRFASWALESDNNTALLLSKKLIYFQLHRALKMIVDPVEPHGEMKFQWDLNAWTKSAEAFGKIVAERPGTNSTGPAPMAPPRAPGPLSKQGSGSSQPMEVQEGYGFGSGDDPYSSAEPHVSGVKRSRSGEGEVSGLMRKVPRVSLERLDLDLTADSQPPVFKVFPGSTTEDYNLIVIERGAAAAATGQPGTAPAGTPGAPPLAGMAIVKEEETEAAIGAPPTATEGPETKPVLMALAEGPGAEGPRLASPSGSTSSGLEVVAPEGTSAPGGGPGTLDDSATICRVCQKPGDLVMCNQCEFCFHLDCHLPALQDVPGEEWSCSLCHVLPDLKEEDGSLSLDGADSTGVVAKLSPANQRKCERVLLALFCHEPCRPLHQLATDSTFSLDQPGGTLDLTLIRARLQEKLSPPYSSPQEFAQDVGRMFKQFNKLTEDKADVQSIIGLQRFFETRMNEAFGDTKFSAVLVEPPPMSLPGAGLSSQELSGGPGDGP

Biological target: Myc-tagged TRIM28 (tripartite motif-containing 28) (UniProt Q13263)
Assay: co-IP; HEK293 cells transfected with Myc-TRIM28 and 3XFlag-SENP6 or 3XFlag-SENP6(C1030A), 48 h; lysed in RIPA buffer with protease inhibitor and NEM; immunoprecipitation with Myc or Flag antibodies; western blot

B1: 3XFlag-SENP6 (SUMO1/sentrin-specific peptidase 6), wild type (enzyme, UniProt Q9GZR1 1-1112)
chain: MAAGKSGGSAGEITFLEALARSESKRDGGFKNNWSFDHEEESEGDTDKDGTNLLSVDEDEDSETSKGKKLNRRSEIVANSSGEFILKTYVRRNKSESFKTLKGNPIGLNMLSNNKKLSENTQNTSLCSGTVVHGRRFHHAHAQIPVVKTAAQSSLDRKERKEYPPHVQKVEINPVRLSRLQGVERIMKKTEESESQVEPEIKRKVQQKRHCSTYQPTPPLSPASKKCLTHLEDLQRNCRQAITLNESTGPLLRTSIHQNSGGQKSQNTGLTTKKFYGNNVEKVPIDIIVNCDDSKHTYLQTNGKVILPGAKIPKITNLKERKTSLSDLNDPIILSSDDDDDNDRTNRRESISPQPADSACSSPAPSTGKVEAALNENTCRAERELRSIPEDSELNTVTLPRKARMKDQFGNSIINTPLKRRKVFSQEPPDALALSCQSSFDSVILNCRSIRVGTLFRLLIEPVIFCLDFIKIQLDEPDHDPVEIILNTSDLTKCEWCNVRKLPVVFLQAIPAVYQKLSIQLQMNKEDKVWNDCKGVNKLTNLEEQYIILIFQNGLDPPANMVFESIINEIGIKNNISNFFAKIPFEEANGRLVACTRTYEESIKGSCGQKENKIKTVSFESKIQLRSKQEFQFFDEEEETGENHTIFIGPVEKLIVYPPPPAKGGISVTNEDLHCLNEGEFLNDVIIDFYLKYLVLEKLKKEDADRIHIFSSFFYKRLNQRERRNHETTNLSIQQKRHGRVKTWTRHVDIFEKDFIFVPLNEAAHWFLAVVCFPGLEKPKYEPNPHYHENAVIQKCSTVEDSCISSSASEMESCSQNSSAKPVIKKMLNKKHCIAVIDSNPGQEESDPRYKRNICSVKYSVKKINHTASENEEFNKGESTSQKVADRTKSENGLQNESLSSTHHTDGLSKIRLNYSDESPEAGKMLEDELVDFSEDQDNQDDSSDDGFLADDNCSSEIGQWHLKPTICKQPCILLMDSLRGPSRSNVVKILREYLEVEWEVKKGSKRSFSKDVMKGSNPKVPQQNNFSDCGVYVLQYVESFFENPILSFELPMNLANWFPPPRMRTKREEIRNIILKLQEDQSKEKRKHKDTYSTEAPLGEGTEQYVNSISD
binding: binds

B2: 3XFlag-SENP6(C1030A) (enzyme, UniProt Q9GZR1 1-1112)
chain: B1 chain with C1030A
binding: binds
